From patent US20240025849A1 (MAX DELBRÜCK-CENTRUM FÜR MOLEKULARE MEDIZIN IN DER …, priority 2020, published 2024) come the findings set out here.

The data set in a line: NO quenching control: NO enriched supernatant incubated with compound, Griess assay. The settings on record: incubation 24 hours, 0.002 to 20 μM.

The structures appear in SMILES notation. “Also recorded” adds a separate entry of the source.

Turning to `COc1ccc(NC(=O)C(NC(=O)C2CCCN2C(=O)OCc2ccccc2)c2ccc(OC)cc2)cc1` (stereo not shown) [C1], the “NO concentration in NO enriched supernatant (quenching)” value is recorded as “no dose dependent reduction; also recorded: Neither C1 nor DMSO altered the NO concentration in the supernatant”.
